This passage reports binding results from article doi:10.1101/2021.10.04.463067.

By UniProt entry, the sequences of proteins in these tests, tags left out. Where a name states a change or a piece, a line headed by the entry shows the natural chain unless it says otherwise.
UniProt Q9UI95: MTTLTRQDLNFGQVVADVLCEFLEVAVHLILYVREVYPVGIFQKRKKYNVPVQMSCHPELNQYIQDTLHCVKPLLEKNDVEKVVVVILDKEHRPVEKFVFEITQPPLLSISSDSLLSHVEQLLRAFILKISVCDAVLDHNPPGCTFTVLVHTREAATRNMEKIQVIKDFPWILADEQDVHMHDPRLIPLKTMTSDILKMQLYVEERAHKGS
UniProt Q96JM3: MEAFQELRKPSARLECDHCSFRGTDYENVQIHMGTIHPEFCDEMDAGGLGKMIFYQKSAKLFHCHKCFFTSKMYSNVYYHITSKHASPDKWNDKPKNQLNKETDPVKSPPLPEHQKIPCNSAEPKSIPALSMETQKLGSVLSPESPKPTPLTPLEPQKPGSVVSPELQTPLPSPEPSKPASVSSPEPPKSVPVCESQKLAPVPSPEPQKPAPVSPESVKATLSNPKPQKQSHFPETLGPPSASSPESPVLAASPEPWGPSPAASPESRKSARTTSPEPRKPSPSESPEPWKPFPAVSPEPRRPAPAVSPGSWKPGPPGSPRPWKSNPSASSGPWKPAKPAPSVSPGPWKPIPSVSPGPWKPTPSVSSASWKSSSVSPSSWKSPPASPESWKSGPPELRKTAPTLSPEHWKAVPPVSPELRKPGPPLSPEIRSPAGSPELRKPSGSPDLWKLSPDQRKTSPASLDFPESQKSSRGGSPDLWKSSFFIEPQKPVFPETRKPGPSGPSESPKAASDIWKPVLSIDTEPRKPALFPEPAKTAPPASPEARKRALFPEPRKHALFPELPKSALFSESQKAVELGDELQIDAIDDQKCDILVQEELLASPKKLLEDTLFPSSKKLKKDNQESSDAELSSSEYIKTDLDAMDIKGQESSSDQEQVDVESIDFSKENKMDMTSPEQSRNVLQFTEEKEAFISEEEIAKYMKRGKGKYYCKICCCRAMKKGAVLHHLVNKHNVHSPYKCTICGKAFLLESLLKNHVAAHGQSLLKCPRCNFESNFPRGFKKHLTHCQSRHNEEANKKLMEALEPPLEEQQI
UniProt O60673: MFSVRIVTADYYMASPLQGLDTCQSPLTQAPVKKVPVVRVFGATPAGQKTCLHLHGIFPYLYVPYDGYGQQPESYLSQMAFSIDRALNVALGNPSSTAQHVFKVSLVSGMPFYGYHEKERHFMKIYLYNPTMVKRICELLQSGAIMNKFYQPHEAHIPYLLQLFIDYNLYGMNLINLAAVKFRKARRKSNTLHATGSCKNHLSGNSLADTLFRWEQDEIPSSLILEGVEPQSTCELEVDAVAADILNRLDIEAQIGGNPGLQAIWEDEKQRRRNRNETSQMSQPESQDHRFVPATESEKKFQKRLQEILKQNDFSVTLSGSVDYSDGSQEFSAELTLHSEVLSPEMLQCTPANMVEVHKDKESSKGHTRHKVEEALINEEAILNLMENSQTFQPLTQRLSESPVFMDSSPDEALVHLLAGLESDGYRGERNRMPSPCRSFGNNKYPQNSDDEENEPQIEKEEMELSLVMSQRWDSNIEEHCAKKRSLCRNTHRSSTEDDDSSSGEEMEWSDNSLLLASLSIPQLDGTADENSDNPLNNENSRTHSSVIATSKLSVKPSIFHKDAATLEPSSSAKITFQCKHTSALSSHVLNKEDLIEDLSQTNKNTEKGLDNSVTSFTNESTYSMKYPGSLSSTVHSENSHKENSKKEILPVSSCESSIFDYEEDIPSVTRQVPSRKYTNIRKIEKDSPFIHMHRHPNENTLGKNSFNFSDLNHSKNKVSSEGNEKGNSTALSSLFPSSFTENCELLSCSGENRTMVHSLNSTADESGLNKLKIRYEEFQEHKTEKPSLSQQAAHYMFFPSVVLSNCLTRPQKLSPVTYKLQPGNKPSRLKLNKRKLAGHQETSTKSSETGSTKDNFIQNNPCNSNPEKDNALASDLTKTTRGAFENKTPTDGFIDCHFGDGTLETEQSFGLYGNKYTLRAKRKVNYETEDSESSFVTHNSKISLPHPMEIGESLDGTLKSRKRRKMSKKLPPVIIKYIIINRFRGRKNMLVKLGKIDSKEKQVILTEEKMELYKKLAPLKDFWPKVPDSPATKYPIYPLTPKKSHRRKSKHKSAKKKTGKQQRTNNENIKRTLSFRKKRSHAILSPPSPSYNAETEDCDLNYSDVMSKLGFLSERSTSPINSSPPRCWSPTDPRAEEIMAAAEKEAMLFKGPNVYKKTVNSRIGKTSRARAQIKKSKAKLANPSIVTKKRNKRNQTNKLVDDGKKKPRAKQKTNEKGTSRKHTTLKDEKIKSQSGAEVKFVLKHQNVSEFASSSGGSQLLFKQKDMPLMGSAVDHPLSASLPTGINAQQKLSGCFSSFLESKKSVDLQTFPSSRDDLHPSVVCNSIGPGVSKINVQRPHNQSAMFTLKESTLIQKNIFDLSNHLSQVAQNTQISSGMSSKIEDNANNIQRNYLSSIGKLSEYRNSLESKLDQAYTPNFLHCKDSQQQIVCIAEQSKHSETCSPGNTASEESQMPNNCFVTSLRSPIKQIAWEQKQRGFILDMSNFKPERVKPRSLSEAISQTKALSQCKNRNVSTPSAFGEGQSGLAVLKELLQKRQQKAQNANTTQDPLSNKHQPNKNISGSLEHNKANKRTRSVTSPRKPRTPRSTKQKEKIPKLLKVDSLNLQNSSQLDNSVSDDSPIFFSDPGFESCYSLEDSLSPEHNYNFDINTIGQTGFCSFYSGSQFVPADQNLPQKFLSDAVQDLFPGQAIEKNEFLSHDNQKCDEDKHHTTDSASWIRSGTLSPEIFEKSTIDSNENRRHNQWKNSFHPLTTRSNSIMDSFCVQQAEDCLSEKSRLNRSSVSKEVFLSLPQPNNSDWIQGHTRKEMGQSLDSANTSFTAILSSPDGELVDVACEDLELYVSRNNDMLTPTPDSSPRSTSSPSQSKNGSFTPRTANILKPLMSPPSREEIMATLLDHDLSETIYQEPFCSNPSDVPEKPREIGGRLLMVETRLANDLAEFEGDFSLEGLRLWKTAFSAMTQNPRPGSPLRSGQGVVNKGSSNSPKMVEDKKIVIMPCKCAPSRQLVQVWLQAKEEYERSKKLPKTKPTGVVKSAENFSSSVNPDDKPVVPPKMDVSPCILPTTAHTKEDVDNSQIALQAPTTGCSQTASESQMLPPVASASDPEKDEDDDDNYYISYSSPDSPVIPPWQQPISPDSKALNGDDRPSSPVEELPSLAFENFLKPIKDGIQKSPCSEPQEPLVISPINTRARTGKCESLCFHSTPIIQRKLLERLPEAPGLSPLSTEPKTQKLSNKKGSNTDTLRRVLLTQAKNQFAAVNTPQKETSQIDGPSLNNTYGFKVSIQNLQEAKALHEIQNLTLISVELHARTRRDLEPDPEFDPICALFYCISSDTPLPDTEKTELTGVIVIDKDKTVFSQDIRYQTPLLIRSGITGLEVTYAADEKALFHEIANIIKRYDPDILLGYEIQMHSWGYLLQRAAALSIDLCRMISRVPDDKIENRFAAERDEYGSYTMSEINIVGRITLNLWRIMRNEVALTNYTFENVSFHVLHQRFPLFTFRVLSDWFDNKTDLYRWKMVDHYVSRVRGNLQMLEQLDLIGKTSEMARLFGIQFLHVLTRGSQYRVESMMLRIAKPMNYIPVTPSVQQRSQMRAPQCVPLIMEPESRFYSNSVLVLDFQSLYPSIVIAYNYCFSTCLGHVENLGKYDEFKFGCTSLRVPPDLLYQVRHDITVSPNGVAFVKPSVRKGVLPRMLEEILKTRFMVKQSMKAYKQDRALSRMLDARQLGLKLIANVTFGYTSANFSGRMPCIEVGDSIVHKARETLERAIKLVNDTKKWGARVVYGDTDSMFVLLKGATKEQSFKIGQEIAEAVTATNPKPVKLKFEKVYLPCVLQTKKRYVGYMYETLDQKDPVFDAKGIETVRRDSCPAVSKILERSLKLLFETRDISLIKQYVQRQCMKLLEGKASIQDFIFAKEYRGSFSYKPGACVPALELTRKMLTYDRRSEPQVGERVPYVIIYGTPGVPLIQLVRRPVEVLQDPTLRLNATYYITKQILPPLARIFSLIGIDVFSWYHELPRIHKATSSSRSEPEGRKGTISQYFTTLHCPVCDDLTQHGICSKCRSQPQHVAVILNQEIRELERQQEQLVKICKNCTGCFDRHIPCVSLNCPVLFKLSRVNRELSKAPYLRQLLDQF

Among the targets are Flag-REV7-T103A (UniProt Q9UI95); Flag-REV7 wild type (UniProt Q9UI95); GFP-CHAMP1-ΔFPE (UniProt Q96JM3).
Experiment in all cases: co-IP
In assay [1] the target is GFP-tagged fragment of REV3 containing the REV7-binding domain (R3BD) (UniProt O60673).

Results are given in words; binding and its absence hold for the method and conditions named. Binding seen in cells or lysates may run through a third protein. A result given as binding can be weak or reduced; the word gives no strength.

On to “GFP-tagged fragment of REV3 containing the REV7-binding domain (R3BD) (from UniProt O60673) (domain or fragment)”, for which the binding result with Flag-REV7-T103A and with Flag-REV7 wild type was “binds” in each case.
On to “endogenous REV7 (from UniProt Q9UI95 1-211)”, for which the binding result (in assay [1]; in the assay with GFP-CHAMP1-ΔFPE) was “binds” throughout.
